Reference: article PMC7868385
These are yes or no findings as the source states them, for the method shown.

Molecular target: BSA, P02769
Experiment: condition: 0.1, 1.0, 10, and 20 μg/ml coated; 10% human serum; ELISA; His-tag recombinant proteins or BSA (0.1, 1.0, 10, and 20 μg/ml, 100 μl) immobilized on the 96-well plate overnight at 4°C; 10% human serum added, 37°C for 1 h; bound FH detected with anti-FH monoclonal antibody, OD450; only the target purified
Conditions: remark: other sources report otherwise

B1: Factor H in human serum, P08603 19-1231 (protein)
chain: EDCNELPPRRNTEILTGSWSDQTYPEGTQAIYKCRPGYRSLGNVIMVCRKGEWVALNPLRKCQKRPCGHPGDTPFGTFTLTGGNVFEYGVKAVYTCNEGYQLLGEINYRECDTDGWTNDIPICEVVKCLPVTAPENGKIVSSAMEPDREYHFGQAVRFVCNSGYKIEGDEEMHCSDDGFWSKEKPKCVEISCKSPDVINGSPISQKIIYKENERFQYKCNMGYEYSERGDAVCTESGWRPLPSCEEKSCDNPYIPNGDYSPLRIKHRTGDEITYQCRNGFYPATRGNTAKCTSTGWIPAPRCTLKPCDYPDIKHGGLYHENMRRPYFPVAVGKYYSYYCDEHFETPSGSYWDHIHCTQDGWSPAVPCLRKCYFPYLENGYNQNYGRKFVQGKSIDVACHPGYALPKAQTTVTCMENGWSPTPRCIRVKTCSKSSIDIENGFISESQYTYALKEKAKYQCKLGYVTADGETSGSITCGKDGWSAQPTCIKSCDIPVFMNARTKNDFTWFKLNDTLDYECHDGYESNTGSTTGSIVCGYNGWSDLPICYERECELPKIDVHLVPDRKKDQYKVGEVLKFSCKPGFTIVGPNSVQCYHFGLSPDLPICKEQVQSCGPPPELLNGNVKEKTKEEYGHSEVVEYYCNPRFLMKGPNKIQCVDGEWTTLPVCIVEESTCGDIPELEHGWAQLSSPPYYYGDSVEFNCSESFTMIGHRSITCIHGVWTQLPQCVAIDKLKKCKSSNLIILEEHLKNKKEFDHNSNIRYRCRGKEGWIHTVCINGRWDPEVNCSMAQIQLCPPPPQIPNSHNMTTTLNYRDGEKVSVLCQENYLIQEGEEITCKDGRWQSIPLCVEKIPCSQPPQIEHGTINSSRSSQESYAHGTKLSYTCEGGFRISEENETTCYMGKWSSPPQCEGLPCKSPPEISHGVVAHMSDSYQYGEEVTYKCFEGFGIDGPAIAKCLGEKWSHPPSCIKTDCLSLPSFENAIPMGEKKDVYKAGEQVTYTCATYYKMDGASNVTCINSRWTGRPTCRDTSCVNPPTVQNAYIVSRQMSKYPSGERVRYQCRSPYEMFGDEEVMCLNGNWTEPPQCKDSTGKCGPPPPIDNGDITSFPLSVYAPASSVEYQCQNLYQLEGNKRITCRNGQWSEPPKCLHPCVISREIMENYNIALRWTAKQKLYSRTGESVEFVCKRGYRLSSRSHTLRTTCWDGKLEYPTCAKR
Question: For B1, which binding is on record?
Answer: no binding
